Data as given in PubChem BioAssay AID504793 (Drosophila RNAi Screening Center, 2011)
The screen tested about 23,000 reagents; shown is a random part of those with a known target gene and a result. Of all reagents, 62 (0.27%) were called active. 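Calls come from follow-up tests whose scores are not deposited, so confirmed genes may have low counts here; counts are not normalised per plate.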 Raw values are not corrected between plates. Entries without a mark were called inactive.

Assay: 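Whole-genome screen for parts of the DNA damage checkpoint at G2/M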 (primary screen)
Cell system: Drosophila S2R+ cells
Knock-down reagent: long dsRNA against Drosophila genes, about 0.25 µg dsRNA per well
Timing: 4 days of dsRNA, then 4 hours of drug before read-out
Challenge: doxorubicin 0.5 µM for 4 hours to cause double-strand breaks, in cells also given a low, harmless dose of dsRNA against nbs to sensitise the assay
Measurement: 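Per-well count of mitotic cells stained for phospho-histone H3 after doxorubicin exposure, used as mitotic index; counts are raw and not normalised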
Scale: mitotic cells: higher = more cells in mitosis, weaker G2 arrest
Rule for the call: 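Genes are called active only when high mitotic counts were reproduced with independent dsRNAs and mitosis was checked for delay without damage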
Meaning of the calls: active = confirmed in follow-up tests; inactive = not confirmed

| target | amplicon | mitotic cells, replicate 1 |
| --- | --- | --- |
| Rab35 | DRSC20691 | 5 |
| Rab35 | DRSC26739 | 6 |
| kto | DRSC10983 | 2 |
| ClC-c | DRSC10499 | 4 |
| Sod1 | DRSC11286 | 9 |
| CG13615 | DRSC14618 | 12 |
| CG13615 | DRSC24018 | 6 |
| Rint1 | DRSC11010 | 7 |
| Rint1 | DRSC27960 | 8 |
| CG40551 (retired record) | DRSC21229 | 6 |
| MED4 | DRSC11014 | 5 |
| MED4 | DRSC25135 | 25 (active) |
| CG10126 | DRSC14191 | 7 |
| Tif-IA | DRSC03717 | 18 |
| Tif-IA | DRSC03726 | 6 |
| Arp2 | DRSC19332 | 6 |
| Gr59e | DRSC04276 | 4 |
| mei-41 | DRSC20350 | 16 |
| Wdr33 | DRSC12162 | 7 |
| Wdr33 | DRSC27065 | 5 |
| CG1773 | DRSC06688 | 3 |
| lncRNA:CR32660 | DRSC22965 | 13 |
| lncRNA:CR32660 | DRSC25869 | 7 |
| Rim | DRSC16224 | 6 |
| Rim | DRSC16226 | 4 |
| Rim | DRSC16227 | 8 |
| Rim | DRSC22406 | 9 |
| fmt | DRSC09717 | 23 |
| CG5611 | DRSC15843 | 11 |
| CG5056 | DRSC02808 | 2 |
| CG8908 | DRSC07297 | 5 |
| sala | DRSC03605 | 4 |
| sala | DRSC28864 | 7 |
| CG9733 | DRSC16549 | 8 |
| Jhedup | DRSC07173 | 7 |
| BomBc2 | DRSC06502 | 2 |
| BomBc2 | DRSC29859 | 12 |
| CG18135 | DRSC10295 | 5 |
| sut3 | DRSC07702 | 7 |
| sut3 | DRSC24322 | 4 |
| CG14006 | DRSC02338 | 2 |
| TrpRS-m | DRSC10848 | 6 |
| CAH1 | DRSC29399 | 11 |
| CG4168 | DRSC01447 | 3 |
| CG4168 | DRSC01933 | 4 |
| CG4168 | DRSC21319 | 7 |
| CG4168 | DRSC22789 | 7 |
